Results reported in the supplement of paper PMC11732987, “Enantioselective OTUD7B fragment discovery through chemoproteomics screening and high-throughput optimisation” (Communications Chemistry, 2025).
The other results are listed elsewhere or left out. The data scatter; read single values as rough.

Chains of the proteins cited; added tags and fusions are not shown. Lines headed by an entry give the natural chain unless they say otherwise; changes in a name come on top. Residues count along the entry.
UniProt Q8NBU5: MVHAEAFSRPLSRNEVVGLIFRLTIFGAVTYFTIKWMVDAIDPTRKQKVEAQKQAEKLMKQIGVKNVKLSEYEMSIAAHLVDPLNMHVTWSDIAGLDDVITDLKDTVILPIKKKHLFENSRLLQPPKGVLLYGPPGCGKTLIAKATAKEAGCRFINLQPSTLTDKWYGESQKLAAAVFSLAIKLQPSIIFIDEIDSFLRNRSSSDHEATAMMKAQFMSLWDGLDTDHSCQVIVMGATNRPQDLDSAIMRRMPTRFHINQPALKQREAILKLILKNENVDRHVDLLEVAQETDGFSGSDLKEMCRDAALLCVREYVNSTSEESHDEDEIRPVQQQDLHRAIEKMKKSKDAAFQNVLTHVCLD
UniProt O95352: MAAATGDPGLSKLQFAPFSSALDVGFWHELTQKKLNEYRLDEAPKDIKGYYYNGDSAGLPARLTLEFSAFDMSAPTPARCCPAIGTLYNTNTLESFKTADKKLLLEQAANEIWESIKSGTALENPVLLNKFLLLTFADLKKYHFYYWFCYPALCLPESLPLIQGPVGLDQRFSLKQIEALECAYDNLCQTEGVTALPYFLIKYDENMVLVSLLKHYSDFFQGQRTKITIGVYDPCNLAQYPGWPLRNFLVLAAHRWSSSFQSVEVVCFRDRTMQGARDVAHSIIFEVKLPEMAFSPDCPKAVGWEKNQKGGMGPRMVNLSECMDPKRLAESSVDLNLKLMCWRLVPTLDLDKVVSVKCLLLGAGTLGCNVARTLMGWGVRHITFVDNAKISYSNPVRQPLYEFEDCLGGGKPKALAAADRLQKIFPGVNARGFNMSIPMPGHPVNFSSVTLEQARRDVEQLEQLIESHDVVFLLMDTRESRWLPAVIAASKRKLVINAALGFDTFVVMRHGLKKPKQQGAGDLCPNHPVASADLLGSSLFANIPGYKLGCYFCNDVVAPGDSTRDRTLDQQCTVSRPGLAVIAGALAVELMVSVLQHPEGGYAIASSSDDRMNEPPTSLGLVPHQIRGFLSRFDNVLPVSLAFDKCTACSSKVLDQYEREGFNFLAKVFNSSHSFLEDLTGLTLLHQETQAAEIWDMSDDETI
UniProt P16615: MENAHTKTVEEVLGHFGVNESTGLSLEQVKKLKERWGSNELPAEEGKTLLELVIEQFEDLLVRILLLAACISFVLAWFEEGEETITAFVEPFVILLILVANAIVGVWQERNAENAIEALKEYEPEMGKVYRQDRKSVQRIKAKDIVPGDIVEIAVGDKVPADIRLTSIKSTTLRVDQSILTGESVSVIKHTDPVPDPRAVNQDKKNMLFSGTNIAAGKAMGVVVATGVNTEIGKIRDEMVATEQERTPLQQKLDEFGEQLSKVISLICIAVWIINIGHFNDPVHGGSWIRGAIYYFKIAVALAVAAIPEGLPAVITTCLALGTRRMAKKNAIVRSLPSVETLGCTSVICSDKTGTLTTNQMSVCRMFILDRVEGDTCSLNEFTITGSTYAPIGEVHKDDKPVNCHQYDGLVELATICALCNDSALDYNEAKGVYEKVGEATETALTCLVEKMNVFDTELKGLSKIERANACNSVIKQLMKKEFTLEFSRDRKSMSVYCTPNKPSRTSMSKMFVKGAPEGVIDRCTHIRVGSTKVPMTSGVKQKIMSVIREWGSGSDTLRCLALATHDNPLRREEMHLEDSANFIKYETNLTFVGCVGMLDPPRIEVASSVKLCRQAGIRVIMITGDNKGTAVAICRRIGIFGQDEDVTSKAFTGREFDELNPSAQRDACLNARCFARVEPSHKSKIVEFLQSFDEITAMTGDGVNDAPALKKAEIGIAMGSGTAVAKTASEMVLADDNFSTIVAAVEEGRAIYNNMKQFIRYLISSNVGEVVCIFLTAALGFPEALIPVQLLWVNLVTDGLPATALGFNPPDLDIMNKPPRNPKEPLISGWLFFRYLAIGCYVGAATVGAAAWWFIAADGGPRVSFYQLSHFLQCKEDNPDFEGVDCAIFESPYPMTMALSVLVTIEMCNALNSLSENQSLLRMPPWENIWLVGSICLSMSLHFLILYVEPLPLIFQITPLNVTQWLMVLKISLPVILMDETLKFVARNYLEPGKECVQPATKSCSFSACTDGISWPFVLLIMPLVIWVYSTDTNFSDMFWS
UniProt O95817, 150-170: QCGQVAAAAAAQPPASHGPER
UniProt Q5T5X7: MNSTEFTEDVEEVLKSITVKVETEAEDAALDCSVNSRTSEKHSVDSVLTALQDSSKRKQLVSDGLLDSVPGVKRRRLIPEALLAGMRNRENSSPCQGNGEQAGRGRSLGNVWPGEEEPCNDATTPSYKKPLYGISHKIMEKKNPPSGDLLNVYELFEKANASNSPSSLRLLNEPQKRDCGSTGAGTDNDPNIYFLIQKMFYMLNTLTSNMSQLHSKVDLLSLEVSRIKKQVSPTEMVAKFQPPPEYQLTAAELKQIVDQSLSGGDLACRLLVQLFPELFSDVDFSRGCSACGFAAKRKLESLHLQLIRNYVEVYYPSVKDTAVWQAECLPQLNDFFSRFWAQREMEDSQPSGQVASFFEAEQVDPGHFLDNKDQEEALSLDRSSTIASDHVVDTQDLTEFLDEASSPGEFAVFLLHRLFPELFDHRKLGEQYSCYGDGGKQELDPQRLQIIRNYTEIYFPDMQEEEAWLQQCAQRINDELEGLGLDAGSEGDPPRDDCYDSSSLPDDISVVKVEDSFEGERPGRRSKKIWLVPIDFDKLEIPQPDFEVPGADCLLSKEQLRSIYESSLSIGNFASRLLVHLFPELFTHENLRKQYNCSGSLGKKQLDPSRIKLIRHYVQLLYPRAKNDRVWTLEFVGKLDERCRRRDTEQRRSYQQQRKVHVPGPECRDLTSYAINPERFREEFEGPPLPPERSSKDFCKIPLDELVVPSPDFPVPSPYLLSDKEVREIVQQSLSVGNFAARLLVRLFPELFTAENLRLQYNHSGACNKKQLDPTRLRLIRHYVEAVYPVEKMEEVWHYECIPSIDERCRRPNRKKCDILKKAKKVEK
UniProt Q13315: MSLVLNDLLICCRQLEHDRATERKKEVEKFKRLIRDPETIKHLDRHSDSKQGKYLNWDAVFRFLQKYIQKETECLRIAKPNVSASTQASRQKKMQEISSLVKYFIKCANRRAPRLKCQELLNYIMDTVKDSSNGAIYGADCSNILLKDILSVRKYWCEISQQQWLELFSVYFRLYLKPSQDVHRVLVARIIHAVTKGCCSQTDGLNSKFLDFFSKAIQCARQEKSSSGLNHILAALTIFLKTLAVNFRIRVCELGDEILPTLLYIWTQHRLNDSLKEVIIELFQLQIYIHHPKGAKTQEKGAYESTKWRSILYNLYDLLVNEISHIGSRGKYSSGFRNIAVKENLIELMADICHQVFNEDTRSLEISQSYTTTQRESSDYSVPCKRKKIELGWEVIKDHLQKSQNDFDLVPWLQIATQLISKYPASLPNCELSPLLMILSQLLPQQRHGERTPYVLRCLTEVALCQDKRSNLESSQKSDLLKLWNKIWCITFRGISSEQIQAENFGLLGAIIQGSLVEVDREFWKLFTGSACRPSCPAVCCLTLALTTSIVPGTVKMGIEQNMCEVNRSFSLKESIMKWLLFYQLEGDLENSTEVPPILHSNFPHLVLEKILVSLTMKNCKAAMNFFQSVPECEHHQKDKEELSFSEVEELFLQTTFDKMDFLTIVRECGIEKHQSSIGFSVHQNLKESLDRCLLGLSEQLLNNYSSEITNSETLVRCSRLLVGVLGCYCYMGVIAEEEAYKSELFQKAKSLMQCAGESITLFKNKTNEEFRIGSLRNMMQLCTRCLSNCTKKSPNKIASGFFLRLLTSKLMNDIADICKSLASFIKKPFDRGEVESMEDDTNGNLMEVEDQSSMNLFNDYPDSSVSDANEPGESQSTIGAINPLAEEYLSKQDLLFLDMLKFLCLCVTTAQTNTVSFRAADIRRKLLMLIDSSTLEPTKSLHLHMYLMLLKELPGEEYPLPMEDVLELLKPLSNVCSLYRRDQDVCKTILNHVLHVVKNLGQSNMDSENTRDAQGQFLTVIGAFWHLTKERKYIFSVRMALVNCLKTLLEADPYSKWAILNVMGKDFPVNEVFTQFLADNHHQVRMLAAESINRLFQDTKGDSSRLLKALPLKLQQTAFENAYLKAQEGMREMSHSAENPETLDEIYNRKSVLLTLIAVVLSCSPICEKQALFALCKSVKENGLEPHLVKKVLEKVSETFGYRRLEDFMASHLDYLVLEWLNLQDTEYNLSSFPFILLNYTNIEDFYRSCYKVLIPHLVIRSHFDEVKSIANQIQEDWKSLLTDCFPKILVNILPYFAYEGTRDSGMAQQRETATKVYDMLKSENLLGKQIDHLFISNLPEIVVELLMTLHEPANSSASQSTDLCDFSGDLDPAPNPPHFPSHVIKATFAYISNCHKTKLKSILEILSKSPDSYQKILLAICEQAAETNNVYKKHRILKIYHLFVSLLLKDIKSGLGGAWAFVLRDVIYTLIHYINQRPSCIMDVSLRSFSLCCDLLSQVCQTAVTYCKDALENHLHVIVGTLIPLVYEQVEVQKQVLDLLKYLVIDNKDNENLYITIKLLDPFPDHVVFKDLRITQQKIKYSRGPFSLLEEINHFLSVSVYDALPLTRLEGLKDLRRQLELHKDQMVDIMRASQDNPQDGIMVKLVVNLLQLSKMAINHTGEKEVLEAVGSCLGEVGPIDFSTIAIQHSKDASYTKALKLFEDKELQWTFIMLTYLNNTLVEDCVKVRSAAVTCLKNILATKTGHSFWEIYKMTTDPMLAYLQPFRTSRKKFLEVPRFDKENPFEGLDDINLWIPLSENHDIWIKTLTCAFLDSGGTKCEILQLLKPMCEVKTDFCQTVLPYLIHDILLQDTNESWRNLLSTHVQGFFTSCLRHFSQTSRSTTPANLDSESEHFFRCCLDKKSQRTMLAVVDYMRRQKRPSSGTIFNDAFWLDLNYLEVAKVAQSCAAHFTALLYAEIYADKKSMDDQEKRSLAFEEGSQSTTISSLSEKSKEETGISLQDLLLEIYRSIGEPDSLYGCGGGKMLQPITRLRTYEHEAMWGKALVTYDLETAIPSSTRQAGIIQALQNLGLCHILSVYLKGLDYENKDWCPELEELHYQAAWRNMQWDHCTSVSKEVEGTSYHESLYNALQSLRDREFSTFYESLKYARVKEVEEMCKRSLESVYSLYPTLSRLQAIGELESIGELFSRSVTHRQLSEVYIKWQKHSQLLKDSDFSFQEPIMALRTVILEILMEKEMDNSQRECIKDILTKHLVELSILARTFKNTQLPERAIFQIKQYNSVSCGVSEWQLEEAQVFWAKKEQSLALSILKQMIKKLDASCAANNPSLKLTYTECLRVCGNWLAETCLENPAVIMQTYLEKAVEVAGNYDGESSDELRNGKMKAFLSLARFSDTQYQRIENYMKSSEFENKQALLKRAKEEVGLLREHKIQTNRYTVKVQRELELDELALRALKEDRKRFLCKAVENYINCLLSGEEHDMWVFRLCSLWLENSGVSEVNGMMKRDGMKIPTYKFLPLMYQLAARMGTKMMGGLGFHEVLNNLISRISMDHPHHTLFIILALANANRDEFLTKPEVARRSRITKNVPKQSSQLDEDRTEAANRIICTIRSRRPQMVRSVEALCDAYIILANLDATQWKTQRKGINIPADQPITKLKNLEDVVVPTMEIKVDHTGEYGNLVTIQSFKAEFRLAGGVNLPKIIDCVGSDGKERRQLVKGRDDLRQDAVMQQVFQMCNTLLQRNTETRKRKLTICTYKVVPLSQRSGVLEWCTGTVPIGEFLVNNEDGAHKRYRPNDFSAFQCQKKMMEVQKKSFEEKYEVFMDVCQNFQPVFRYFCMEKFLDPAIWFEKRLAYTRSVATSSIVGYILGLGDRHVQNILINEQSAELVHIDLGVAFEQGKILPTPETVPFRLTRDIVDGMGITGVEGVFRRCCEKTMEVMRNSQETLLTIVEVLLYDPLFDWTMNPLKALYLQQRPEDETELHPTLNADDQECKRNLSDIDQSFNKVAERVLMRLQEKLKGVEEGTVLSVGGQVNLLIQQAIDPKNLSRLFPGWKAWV
UniProt O95999: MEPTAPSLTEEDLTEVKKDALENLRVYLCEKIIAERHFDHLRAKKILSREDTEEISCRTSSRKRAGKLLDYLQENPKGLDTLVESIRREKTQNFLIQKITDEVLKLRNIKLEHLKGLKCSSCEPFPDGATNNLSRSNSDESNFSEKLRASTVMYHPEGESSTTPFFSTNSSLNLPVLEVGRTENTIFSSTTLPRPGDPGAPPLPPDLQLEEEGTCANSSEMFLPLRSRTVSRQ
UniProt P61421, whole entry, looked up: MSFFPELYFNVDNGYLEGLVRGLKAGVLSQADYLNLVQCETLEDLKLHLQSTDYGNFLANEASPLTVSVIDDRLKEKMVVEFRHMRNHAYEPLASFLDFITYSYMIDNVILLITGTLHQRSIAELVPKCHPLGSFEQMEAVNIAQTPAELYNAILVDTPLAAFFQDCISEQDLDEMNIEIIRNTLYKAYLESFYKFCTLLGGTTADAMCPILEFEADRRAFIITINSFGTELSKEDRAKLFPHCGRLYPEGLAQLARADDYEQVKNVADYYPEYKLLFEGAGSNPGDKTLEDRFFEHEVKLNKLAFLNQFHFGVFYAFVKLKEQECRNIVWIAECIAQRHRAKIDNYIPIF

The targets below were run with ClCC(=O)N[C@H]1CCCc2ccccc12 (assay: log2 mean competition ratio of IA-DTB cysteine labelling (DMSO/compound) (log2 ratio); higher = stronger cysteine engagement by compound). Details: 50 µM; treatment time: 4 h; cell line lysate: HEK293T.
Description: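 IA-DTB competitive cysteine chemoproteomics in HEK293T RIPA lysate. Lysates were treated with compound 29 or 30 at 50 or 200 µM for 4 h, then IA-DTB (500 µM, 1 h), trypsin-digested, NeutrAvidin-enriched and analysed by diaPASEF. Competition ratio = intensity DMSO / intensity compound (n=4 treated, n=64 DMSO); binding: mean log2 CR ≥ 1 and p ≤ 0.05 plus QC filters. Target is the cysteine site.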

| Target | log2 mean competition ratio |
| --- | --- |
| BCKDHB C316 (UniProt P21953) | 0.0632 |
| ATAD1 C359 (UniProt Q8NBU5) | -0.0229 |
| ATG7 C298 (UniProt O95352) | -0.284 |
| ATP2A2 C997 (UniProt P16615) | 0.157 |
| ATP13A1 C711 (UniProt Q9HD20) | 0.118 |
| BAG3 C151 (UniProt O95817) | 0.256 |
| ASPM C2805 (UniProt Q8IZT6) | -0.183 |
| BEND3 C767 (UniProt Q5T5X7) | -0.259 |
| BCS1L C234 | 0.0238 |
| ATP2A2 C471 (UniProt P16615) | 0.102 |
| ATP2C1 C477 (UniProt P98194) | -0.45 |
| ATM C1286 (UniProt Q13315) | 0.12 |
| ASXL1 C672 (UniProt Q8IXJ9) | -0.223 |
| BCL10 C57 (UniProt O95999) | 0.265 |
| ATXN10 C283 (UniProt Q9UBB4) | -0.262 |
| ATP6V0D1 C326 (UniProt P61421) | -0.171 |
| ASXL2 C266 (UniProt Q76L83) | -0.213 |
| ATP7A C160 (UniProt Q04656) | -0.609 |
| BDP1 C1797 (UniProt A6H8Y1) | 0.0583 |
| ATM C2021 (UniProt Q13315) | -0.0596 |

Same assay, conditions: 200 µM; treatment time: 4 h; cell line lysate: HEK293T

| Target | log2 mean competition ratio |
| --- | --- |
| BCKDHB C316 (UniProt P21953) | 0.0464 |
| ATAD1 C359 (UniProt Q8NBU5) | 0.119 |
| ATG7 C298 (UniProt O95352) | -0.107 |
| ATP2A2 C997 (UniProt P16615) | -0.101 |
| ATP13A1 C711 (UniProt Q9HD20) | -0.0653 |
| BAG3 C151 (UniProt O95817) | -0.229 |
| ASPM C2805 (UniProt Q8IZT6) | -0.146 |
| BEND3 C767 (UniProt Q5T5X7) | -0.26 |
| BCS1L C234 | -0.0426 |
| ATP2A2 C471 (UniProt P16615) | -0.0453 |
| ATP2C1 C477 (UniProt P98194) | 0.227 |
| ATM C1286 (UniProt Q13315) | -0.252 |
| ASXL1 C672 (UniProt Q8IXJ9) | 0.0159 |
| BCL10 C57 (UniProt O95999) | 0.354 |
| ATXN10 C283 (UniProt Q9UBB4) | 0.0314 |
| ATP6V0D1 C326 (UniProt P61421) | 0.00243 |
| ASXL2 C266 (UniProt Q76L83) | 0.0653 |
| ATP7A C160 (UniProt Q04656) | -0.111 |
| BDP1 C1797 (UniProt A6H8Y1) | -0.347 |
| ATM C2021 (UniProt Q13315) | 0.16 |
